These are yes or no findings as the source states them, for the method shown. Some entries that bind do so weakly or less than the wild type.
Key:
[1] = target: Super ecliptic pHluorin (SEP)-KOR, murine (murine) (UniProt P33534); experiment: TIR-FM recruitment to antibody-clustered receptors in living cells; as a3, frames collected immediately before agonist
[2] = target: Super ecliptic pHluorin (SEP)-KOR, murine (murine) (UniProt P33534); experiment: TIR-FM recruitment to antibody-clustered receptors in living cells; HEK293 cell expressing GRK2-mCherry and SEP-KOR; KOR cross-linked with polyclonal rabbit anti-GFP antibody (1:100, 15 min, 37 C); 1 uM DynA, 1-2 min
[3] = target: Super ecliptic pHluorin (SEP)-KOR, murine (murine) (UniProt P33534); experiment: condition: only with etorphine (1 uM) as the agonist; TIR-FM recruitment to antibody-clustered receptors in living cells; as a3, but with etorphine (1 uM) instead of DynA

The chains behind the UniProt entries cited, without tags or fusion partners.
UniProt P33534: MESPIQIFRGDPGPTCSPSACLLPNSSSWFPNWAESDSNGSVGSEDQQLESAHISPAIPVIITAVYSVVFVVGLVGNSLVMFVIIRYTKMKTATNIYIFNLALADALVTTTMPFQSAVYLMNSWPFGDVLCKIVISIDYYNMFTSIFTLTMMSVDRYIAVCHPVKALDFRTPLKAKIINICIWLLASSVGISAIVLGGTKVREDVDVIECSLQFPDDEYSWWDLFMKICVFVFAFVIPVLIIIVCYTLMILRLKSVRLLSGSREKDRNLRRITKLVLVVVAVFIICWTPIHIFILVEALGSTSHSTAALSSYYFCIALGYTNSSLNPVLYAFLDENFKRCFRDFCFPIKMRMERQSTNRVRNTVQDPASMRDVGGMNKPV
UniProt Q99MK8: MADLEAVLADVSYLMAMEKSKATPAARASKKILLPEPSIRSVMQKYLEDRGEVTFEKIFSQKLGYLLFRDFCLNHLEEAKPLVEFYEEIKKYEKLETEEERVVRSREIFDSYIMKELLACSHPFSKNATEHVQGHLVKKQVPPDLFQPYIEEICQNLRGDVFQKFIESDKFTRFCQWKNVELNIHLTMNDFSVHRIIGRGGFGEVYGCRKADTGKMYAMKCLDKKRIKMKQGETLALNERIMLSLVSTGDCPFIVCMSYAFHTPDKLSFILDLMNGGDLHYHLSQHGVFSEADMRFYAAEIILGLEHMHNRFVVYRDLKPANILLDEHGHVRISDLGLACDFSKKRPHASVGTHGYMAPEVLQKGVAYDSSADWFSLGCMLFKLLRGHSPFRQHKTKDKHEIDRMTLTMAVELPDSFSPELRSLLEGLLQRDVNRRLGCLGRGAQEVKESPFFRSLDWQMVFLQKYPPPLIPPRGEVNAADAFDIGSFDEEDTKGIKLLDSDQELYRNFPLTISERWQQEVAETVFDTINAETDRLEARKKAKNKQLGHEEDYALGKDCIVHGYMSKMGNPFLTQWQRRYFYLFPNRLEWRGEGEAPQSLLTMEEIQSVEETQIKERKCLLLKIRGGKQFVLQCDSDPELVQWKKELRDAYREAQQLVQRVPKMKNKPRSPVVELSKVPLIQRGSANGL

binding [1]: no binding (condition: without agonist) | binding [2]: binds | binding [3]: no binding
Substance: GRK2-mCherry, murine (from UniProt Q99MK8 1-689) (enzyme)

Reference: PMC7041944
